This test deals with T1, Dehydration-induced 19-1 (DI19-1), fused with BD domain (rice (Oryza sativa)) (UniProt Q688X9).
T1 sequence: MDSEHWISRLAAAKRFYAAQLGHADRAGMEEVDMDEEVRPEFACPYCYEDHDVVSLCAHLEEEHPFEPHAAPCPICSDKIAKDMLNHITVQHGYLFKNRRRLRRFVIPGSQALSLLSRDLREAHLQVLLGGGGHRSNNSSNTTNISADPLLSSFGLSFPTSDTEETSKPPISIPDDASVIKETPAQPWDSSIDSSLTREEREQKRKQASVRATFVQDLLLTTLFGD
In words: two-hybrid; Matchmaker Gold system; co-transformation of both plasmids into Y2HGold; growth on SD/-Trp-Leu, interaction by colony growth on SD/-Trp-Leu-Ade-His with X-α-Gal.

No constants are given. Whether binding was seen depends on the method and setting. Binding calls can cover weak binding; strength is not graded here. Sequences can lack the tags named with a protein.

As for “Serine carboxypeptidase 46 (SCP46), fused with AD (rice (Oryza sativa)) (enzyme)”, the binding result was “binds”.

(Values after paper PMC4957776.)
